Measurements from paper PMC7760077.
These are yes or no findings as the source states them, for the method shown. Some entries that bind do so weakly or less than the wild type. For some of these results: Tags and fused reporters may be left off the sequences shown.

T1: recombinant human NRP-1 (Phe22-Lys644) (human) (UniProt O14786)
T1 sequence (chain, biotin): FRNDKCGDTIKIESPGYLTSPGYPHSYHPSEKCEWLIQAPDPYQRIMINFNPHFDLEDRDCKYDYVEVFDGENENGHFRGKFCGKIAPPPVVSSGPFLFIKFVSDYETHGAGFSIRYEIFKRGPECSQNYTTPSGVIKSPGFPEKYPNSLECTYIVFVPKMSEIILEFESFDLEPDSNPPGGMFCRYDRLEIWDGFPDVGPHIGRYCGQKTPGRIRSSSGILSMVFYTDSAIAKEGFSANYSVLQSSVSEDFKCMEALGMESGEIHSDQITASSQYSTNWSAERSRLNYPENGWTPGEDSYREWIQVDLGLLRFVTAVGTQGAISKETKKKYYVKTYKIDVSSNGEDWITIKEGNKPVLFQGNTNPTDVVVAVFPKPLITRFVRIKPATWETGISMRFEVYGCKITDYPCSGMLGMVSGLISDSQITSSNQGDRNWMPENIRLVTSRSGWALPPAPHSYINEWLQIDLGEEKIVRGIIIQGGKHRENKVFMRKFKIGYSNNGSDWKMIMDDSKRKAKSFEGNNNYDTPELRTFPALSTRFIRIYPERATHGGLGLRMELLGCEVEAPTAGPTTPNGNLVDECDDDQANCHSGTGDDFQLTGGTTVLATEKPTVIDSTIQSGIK

T2: biotinylated recombinant mouse NRP1 (Phe22-Pro856) (mouse) (UniProt P97333)
T2 sequence (chain, biotin): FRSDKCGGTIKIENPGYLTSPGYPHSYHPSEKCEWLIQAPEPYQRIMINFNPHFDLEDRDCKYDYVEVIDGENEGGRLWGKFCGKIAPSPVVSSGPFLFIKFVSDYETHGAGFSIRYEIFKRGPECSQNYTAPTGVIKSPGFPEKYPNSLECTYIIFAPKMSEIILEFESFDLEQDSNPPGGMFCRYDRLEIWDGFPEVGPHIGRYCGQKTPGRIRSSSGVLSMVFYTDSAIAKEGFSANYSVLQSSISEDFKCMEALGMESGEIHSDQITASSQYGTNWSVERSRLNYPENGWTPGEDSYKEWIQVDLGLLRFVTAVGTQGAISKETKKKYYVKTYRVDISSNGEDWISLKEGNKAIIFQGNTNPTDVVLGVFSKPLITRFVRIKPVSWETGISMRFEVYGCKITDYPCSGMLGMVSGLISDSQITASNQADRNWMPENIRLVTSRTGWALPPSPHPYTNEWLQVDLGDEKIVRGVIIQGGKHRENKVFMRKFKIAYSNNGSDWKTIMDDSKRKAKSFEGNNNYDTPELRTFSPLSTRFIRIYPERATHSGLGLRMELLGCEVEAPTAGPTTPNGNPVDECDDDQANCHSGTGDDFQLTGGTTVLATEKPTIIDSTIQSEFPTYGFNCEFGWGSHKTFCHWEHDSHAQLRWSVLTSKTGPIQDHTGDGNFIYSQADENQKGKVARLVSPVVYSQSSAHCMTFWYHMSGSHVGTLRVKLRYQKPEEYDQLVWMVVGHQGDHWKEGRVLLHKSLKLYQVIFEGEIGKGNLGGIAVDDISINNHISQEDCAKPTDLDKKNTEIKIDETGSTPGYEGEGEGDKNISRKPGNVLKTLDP


Assays:
[1] = molecular target: human NRP-1 expressed on COS cells (human) (UniProt O14786); assay: alkaline phosphatase-ligand cell-binding assay; COS cells transfected with mouse or human NRP-1, incubated with AP-conjugated Sema3A in the presence of Nb1 or control Nb BCII10; cell-bound AP revealed with p-nitrophenylphosphate, read at 405 nm
[2] = molecular target: mouse NRP-1 expressed on COS cells (mouse) (UniProt P97333); assay: as above
[3] = molecular target: T1, recombinant human NRP-1 (Phe22-Lys644) (human); assay: AlphaScreen or HTRF; competition: biotinylated NRP1 (1.6 nM) with a dilution series of Nb1 or BCII10 for 1 h at room temperature, then human Sema3A-Fc (6 nM) for 1 h; streptavidin donor beads and anti-human IgG (Fc specific) acceptor beads; both purified
[4] = molecular target: T2, biotinylated recombinant mouse NRP1 (Phe22-Pro856) (mouse); assay: as above

binding [1]	binding [2]	binding [3]	binding [4]	Binder
binds	binds	–	–	alkaline phosphatase (AP)-conjugated Sema3A (ligand, UniProt Q14563 21-771) NYQNGKNNVPRLKLSYKEMLESNNVITFNGLANSSSYHTFLLDEERSRLYVGAKDHIFSFDLVNIKDFQKIVWPVSYTRRDECKWAGKDILKECANFIKVLKAYNQTHLYACGTGAFHPICTYIEIGHHPEDNIFKLENSHFENGRGKSPYDPKLLTASLLIDGELYSGTAADFMGRDFAIFRTLGHHHPIRTEQHDSRWLNDPKFISAHLISESDNPEDDKVYFFFRENAIDGEHSGKATHARIGQICKNDFGGHRSLVNKWTTFLKARLICSVPGPNGIDTHFDELQDVFLMNFKDPKNPVVYGVFTTSSNIFKGSAVCMYSMSDVRRVFLGPYAHRDGPNYQWVPYQGRVPYPRPGTCPSKTFGGFDSTKDLPDDVITFARSHPAMYNPVFPMNNRPIVIKTDVNYQFTQIVVDRVDAEDGQYDVMFIGTDVGTVLKVVSIPKETWYDLEEVLLEEMTVFREPTAISAMELSTKQQQLYIGSTAGVAQLPLHRCDIYGKACAECCLARDPYCAWDGSACSRYFPTAKRRTRRQDIRNGDPLTHCSDLHHDNHHGHSPEERIIYGVENSSTFLECSPKSQRALVYWQFQRRNEERKEEIRVDDHIIRTDQGLLLRSLQQKDSGNYLCHAVEHGFIQTLLKVTLEVIDTEHLEELLHKDDDGDGSKTKEMSNSMTPSQKVWYRDFMQLINHPNLNTMDEFCEQVWKRDRKQRRQRPGHTPGNSNKWKHLQENKKGRNRRTHEFERAPRSV
–	–	binds	binds	human Sema3A-Fc (Fc fusion, UniProt Q14563 21-771) NYQNGKNNVPRLKLSYKEMLESNNVITFNGLANSSSYHTFLLDEERSRLYVGAKDHIFSFDLVNIKDFQKIVWPVSYTRRDECKWAGKDILKECANFIKVLKAYNQTHLYACGTGAFHPICTYIEIGHHPEDNIFKLENSHFENGRGKSPYDPKLLTASLLIDGELYSGTAADFMGRDFAIFRTLGHHHPIRTEQHDSRWLNDPKFISAHLISESDNPEDDKVYFFFRENAIDGEHSGKATHARIGQICKNDFGGHRSLVNKWTTFLKARLICSVPGPNGIDTHFDELQDVFLMNFKDPKNPVVYGVFTTSSNIFKGSAVCMYSMSDVRRVFLGPYAHRDGPNYQWVPYQGRVPYPRPGTCPSKTFGGFDSTKDLPDDVITFARSHPAMYNPVFPMNNRPIVIKTDVNYQFTQIVVDRVDAEDGQYDVMFIGTDVGTVLKVVSIPKETWYDLEEVLLEEMTVFREPTAISAMELSTKQQQLYIGSTAGVAQLPLHRCDIYGKACAECCLARDPYCAWDGSACSRYFPTAKRRTRRQDIRNGDPLTHCSDLHHDNHHGHSPEERIIYGVENSSTFLECSPKSQRALVYWQFQRRNEERKEEIRVDDHIIRTDQGLLLRSLQQKDSGNYLCHAVEHGFIQTLLKVTLEVIDTEHLEELLHKDDDGDGSKTKEMSNSMTPSQKVWYRDFMQLINHPNLNTMDEFCEQVWKRDRKQRRQRPGHTPGNSNKWKHLQENKKGRNRRTHEFERAPRSV
